Measurements as given in article PMC2770995.
Positions count from the first letter of the chain named. Results are given in words; binding and its absence hold for the method and conditions named. In cells and extracts the contact can be indirect. Some binding calls cover weakened binding; strength is not graded here. Where a sequence is shown, tags or fusion partners need not be part of it. Values belong to the binder of their own block, whether it stands above or below them.

Key:
[1] = biological target: T1, BIO-tagged Sbh1p trans-membrane domain (BIO-SBH1(50-75)) (S. cerevisiae); test: pull-down; BIO-Sbh1p full length or tm-domain pulled down with streptavidin-conjugated magnetic beads from lysates of sbh1Δ RTN1-3XHA RTN2-9xmyc (H3723) or sbh1Δ RTN1-3XHA YOP1-9xmyc (H3722) cells; Western blot with HRP-streptavidin and antibodies to Sec61p, myc and HA (Figure 4)
T1 sequence (chain, biotin on the BIO-tag (biotinylated in vivo in yeast)): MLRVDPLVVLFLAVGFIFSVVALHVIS

[2] = biological target: T2, BIO-tagged full length Sbh1p (BIO-SBH1(1-82)) (S. cerevisiae) (UniProt P52870); test: as above
T2 sequence (chain, biotin on the BIO-tag (biotinylated in vivo in yeast)): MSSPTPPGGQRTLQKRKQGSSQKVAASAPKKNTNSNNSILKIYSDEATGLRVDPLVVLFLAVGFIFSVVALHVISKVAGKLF

[3] = biological target: T1, BIO-tagged Sbh1p trans-membrane domain (BIO-SBH1(50-75)) (S. cerevisiae); test: pull-down; BIO-tagged Sbh1p versions pulled down with streptavidin-coupled magnetic beads from membrane protein-enriched lysates of sbh1Δ RTN1-3HA cells (H3429); 1 h at 4°C, 5 washes; Western blot with anti-Sec61p, anti-HA or HRP-streptavidin (Figures 2B and 3D)
[4] = biological target: T2, BIO-tagged full length Sbh1p (BIO-SBH1(1-82)) (S. cerevisiae); test: as above
[5] = biological target: T3, BIO-tagged full length Sbh1p double mutant (BIO-SBH1(1-82, P54S V57G)) (S. cerevisiae) (UniProt P52870); test: as above
T3 sequence (chain, biotin on the BIO-tag (biotinylated in vivo in yeast)): T2 sequence (chain, biotin on the BIO-tag (biotinylated in vivo in yeast)) with P54S, V57G

binding [1]: binds
binding [2]: binds
B1: Rtn2p-9myc (protein, UniProt Q12443 1-393)
chain: MNRNTTTNKNANLNNSRNANAPGEAGHQNKTGLIYWTNPSKSGASFAATLVSLLILRNVNVISVLLKIGYMVLFTSFAVELSTKVLFDKGVVSRFGMQESPDLVGVLKPHIDRELDRLPALEDRIRKLVFAHRTRNNFTIGVSLYFLHGLFAIFSMNTVLIMTTIFLYTVPLIYDRKQARIDRAIDRMKDLVIHRFHKNYNKVVEKTEPYIDKIIPPQTDEGSYSTSISNENKSSTSQRNKSGLSSSEFDNMNDTSASKSGKDSYSTSQYNRAEYPVSQNENIGTLKSGKQEIPTEKDFNNRHENFSKPDVKTYDPRTVDIEEELAAHQRELEQNLKDGDYNLVGSKEIPDPITVPAPTRHTTKPAESQSIPIKNNETLHKTTHGLKQKLQHA

binding [1]: binds
binding [2]: binds
binding [3]: binds
binding [4]: binds
binding [5]: binds
B2: Sec61p (protein, UniProt P32915 1-480)
chain: MSSNRVLDLFKPFESFLPEVIAPERKVPYNQKLIWTGVSLLIFLILGQIPLYGIVSSETSDPLYWLRAMLASNRGTLLELGVSPIITSSMIFQFLQGTQLLQIRPESKQDRELFQIAQKVCAIILILGQALVVVMTGNYGAPSDLGLPICLLLIFQLMFASLIVMLLDELLSKGYGLGSGISLFTATNIAEQIFWRAFAPTTVNSGRGKEFEGAVIAFFHLLAVRKDKKRALVEAFYRTNLPNMFQVLMTVAIFLFVLYLQGFRYELPIRSTKVRGQIGIYPIKLFYTSNTPIMLQSALTSNIFLISQILFQKYPTNPLIRLIGVWGIRPGTQGPQMALSGLAYYIQPLMSLSEALLDPIKTIVYITFVLGSCAVFSKTWIEISGTSPRDIAKQFKDQGMVINGKRETSIYRELKKIIPTAAAFGGATIGALSVGSDLLGTLGSGASILMATTTIYGYYEAAAKEGGFTKNLVPGFSDLM

binding [1]: binds
binding [2]: binds
B3: Yop1p-9myc (protein, UniProt Q12402 1-180)
chain: MSEYASSIHSQMKQFDTKYSGNRILQQLENKTNLPKSYLVAGLGFAYLLLIFINVGGVGEILSNFAGFVLPAYLSLVALKTPTSTDDTQLLTYWIVFSFLSVIEFWSKAILYLIPFYWFLKTVFLIYIALPQTGGARMIYQKIVAPLTDRYILRDVSKTEKDEIRASVNEASKATGASVH
